Laboratory results: paper PMC5704379
No constants are given. Whether binding was seen depends on the method and setting. Binding seen in cells or lysates may run through a third protein. A result given as binding can be weak or reduced; the word gives no strength.

Tests used:
Test in all cases: co-IP; 293 cells cotransfected with myc-tagged full-length Sertad1 or single domains and pcDNA3.1-iASPP; lysates precipitated with anti-myc, blotted with anti-iASPP
[1] = biological target: Sertad1 PHD-Bromo domain with myc tag
[2] = biological target: Sertad1 Cyclin-A domain with myc tag
[3] = biological target: Sertad1 C terminal domain with myc tag

binding [1]: binds
binding [2]: binds
binding [3]: binds
B1: iASPP (pcDNA3.1-iASPP) (protein, UniProt Q8WUF5 1-828)
chain: MDSEAFQSARDFLDMNFQSLAMKHMDLKQMELDTAAAKVDELTKQLESLWSDSPAPPGPQAGPPSRPPRYSSSSIPEPFGSRGSPRKAATDGADTPFGRSESAPTLHPYSPLSPKGRPSSPRTPLYLQPDAYGSLDRATSPRPRAFDGAGSSLGRAPSPRPGPGPLRQQGPPTPFDFLGRAGSPRGSPLAEGPQAFFPERGPSPRPPATAYDAPASAFGSSLLGSGGSAFAPPLRAQDDLTLRRRPPKAWNESDLDVAYEKKPSQTASYERLDVFARPASPSLQLLPWRESSLDGLGGTGKDNLTSATLPRNYKVSPLASDRRSDAGSYRRSLGSAGPSGTLPRSWQPVSRIPMPPSSPQPRGAPRQRPIPLSMIFKLQNAFWEHGASRAMLPGSPLFTRAPPPKLQPQPQPQPQPQSQPQPQLPPQPQTQPQTPTPAPQHPQQTWPPVNEGPPKPPTELEPEPEIEGLLTPVLEAGDVDEGPVARPLSPTRLQPALPPEAQSVPELEEVARVLAEIPRPLKRRGSMEQAPAVALPPTHKKQYQQIISRLFHRHGGPGPGGPEPELSPITEGSEARAGPPAPAPPAPIPPPAPSQSSPPEQPQSMEMRSVLRKAGSPRKARRARLNPLVLLLDAALTGELEVVQQAVKEMNDPSQPNEEGITALHNAICGANYSIVDFLITAGANVNSPDSHGWTPLHCAASCNDTVICMALVQHGAAIFATTLSDGATAFEKCDPYREGYADCATYLADVEQSMGLMNSGAVYALWDYSAEFGDELSFREGESVTVLRRDGPEETDWWWAALHGQEGYVPRNYFGLFPRVKPQRSKV
